Laboratory results as given in PubChem BioAssay AID1347081 (National Center for Advancing Translational Sciences (NCATS), 2019).
Values joined by “and” are separate entries in the source; they are usually repeats but may differ in a detail not shown here. Equal entries are not always repeated. Inconclusive results, whose numbers are uncertain, are shown with a selection of clear calls. Potencies of inconclusive entries are doubtful fits and often do not repeat. Active and inactive are the calls of the source. The call rests on the fitted dose curve.

Experiment: qHTS for Inhibitors of the Functional Ribonucleoprotein Complex (vRNP) of Lassa (LASV) Arenavirus: Viability assay - alamar blue signal for LASV Confirmatory Screen

Row | Structure (SMILES) | Potency
1 | COc1cccc(-c2ccc(NC(=O)C3=C(C(=O)O)CCC3)c(F)c2)c1 | inconclusive: 8.63 µM [inhibitor, full curve]
2 | Oc1cc(Cl)ccc1Oc1ccc(Cl)cc1Cl | active: 39.5 µM
3 | Cc1ccc2c(c1)C1CN(C)CCC1N2 (configuration not stated) | inactive
4 | O=C(Nc1ccccc1)c1cc([N+](=O)[O-])ccc1Cl | inconclusive: 24.3 µM [inhibitor, partial curve, poor fit]
5 | CCC[C@H](N[C@@H](C)C(=O)N1[C@@H]2CCCC[C@H]2C[C@H]1C(=O)O)C(=O)OCC | inactive
6 | COCCOC(=O)C1=C(C)NC(C)=C(C(=O)OC/C=C/c2ccccc2)C1c1cccc([N+](=O)[O-])c1 (configuration not stated) | inconclusive: 43.2 µM [inhibitor, partial curve, poor fit]
7 | CC(C)(C)C1CCC(CC2=C(O)c3ccccc3C(=O)C2=O)CC1 (configuration not stated) | inconclusive: 30.6 µM [inhibitor, partial curve, poor fit]
8 | C=C(C)C1Cc2c(ccc3c2OC2COc4cc(OC)c(OC)cc4C2C3=O)O1 (configuration not stated) | active: 0.0968 µM
9 | COC1=CC(=O)C[C@@H](C)[C@]12Oc1c(Cl)c(OC)cc(OC)c1C2=O | inconclusive: 12.2 µM [inhibitor, full curve]
10 | FC(F)(F)c1ccc(C=Cc2nc(COc3ccc(CCCCn4ccnn4)cc3)co2)cc1 | inconclusive: 0.0769 µM [inhibitor, full curve]
11 | O=C1Cc2cc(CCN3CCN(c4nsc5ccccc45)CC3)c(Cl)cc2N1 | inactive
12 | CN(C)c1ccc(O)c2c1C[C@H]1C[C@H]3[C@H](N(C)C)C(=O)C(C(N)=O)=C(O)[C@@]3(O)C(=O)C1=C2O | inactive
13 | CCOC(=O)OCC/C(SC(=O)OCC)=C(\C)N(C=O)Cc1cnc(C)nc1N | inactive
14 | Cc1cc(N)c2ccccc2[n+]1CCCCCCCCCC[n+]1c(C)cc(N)c2ccccc21 | inconclusive: 1.72 µM [inhibitor, full curve]
15 | COc1cc2c(cc1OC)CC(=O)N(CCCN(C)C[C@H]1Cc3cc(OC)c(OC)cc31)CC2 | inactive
16 | C=C1CC[C@@H]2[C@](C)(CO)[C@H](O)CC[C@@]2(C)[C@@H]1/C=C/C1=CCOC1=O | inconclusive: 43.2 µM [inhibitor, single point]
17 | O=C(Nc1ccc(Cl)c(Cl)c1)C1CC1 | inconclusive: 0.0014 µM [inhibitor, single point]
18 | CNCCCC1c2ccccc2C=Cc2ccccc21 | active: 24.3 µM
19 | C[C@]12CC[C@@H](O)C[C@H]1CC[C@@H]1[C@H]2CC[C@]2(C)C(=O)CC[C@@H]12 | inconclusive: 24.7 µM [inhibitor, single point]

Row | Structure (SMILES) | Potency
20 | O=c1ccc2ccc(O)c(O)c2o1 | inactive
21 | Cc1ccccc1-n1c(Cn2nc(-c3cccc(O)c3)c3c(N)ncnc32)nc2cccc(C)c2c1=O | inconclusive: 38.5 µM [inhibitor, single point]
22 | Cc1ncc([N+](=O)[O-])n1CC(C)O (configuration not stated) | inactive
23 | O=C1NC(=O)/C(=C/c2ccc3nccnc3c2)S1 | inconclusive: 27.3 µM [inhibitor, partial curve]
24 | CC(=O)[C@H]1CC[C@H]2[C@@H]3CCC4=CC(=O)CC[C@]4(C)[C@H]3CC[C@]12C | inconclusive: 19.3 µM [inhibitor, partial curve, poor fit]
25 | CCN(CC)C(=O)N[C@@H]1C=C2c3cccc4[nH]cc(c34)C[C@@H]2N(C)C1 | inactive
26 | Nc1nc2ccc(OC(F)(F)F)cc2s1 | inconclusive: 24.3 µM [inhibitor, partial curve]
27 | COc1ccc2c(c1OC)CN1CCc3cc4c(cc3C1C2)OCO4 (configuration not stated) | inconclusive: 9.68 µM [inhibitor, partial curve]
28 | S=C(NCc1ccc2c(c1)OCO2)N1CCN(c2ncnc3c2oc2ccccc23)CC1 | active: 8.85 µM
29 | CN1CCN(C2=Nc3cc(Cl)ccc3Nc3ccccc32)CC1 | inconclusive: 24.3 µM [inhibitor, single point]
30 | O=C(CCCN1CCN(c2ccc(F)cc2)CC1)NC1c2ccccc2CSc2ccccc21 (configuration not stated) | inconclusive: 0.0172 µM [inhibitor, full curve]
31 | COc1ccc(Cc2nccc3cc(OC)c(OC)cc23)cc1OC | active: 13.7 µM and inconclusive: 21.7 µM [inhibitor, partial curve]
32 | O=C1c2ccccc2-n2c1nc1ccccc1c2=O | active: 3.85 µM
33 | Clc1nccc2c1ccc1ccccc12 | inactive
34 | NC(=O)N/N=C/c1ccc([N+](=O)[O-])o1 | inconclusive: 6.11 µM [inhibitor, full curve, poor fit]
35 | O=C(Nc1ccccc1)Nc1ccc(-c2ccc(C(=O)[C@H]3CCC[C@H]3C(=O)O)cc2)cc1 | inactive
36 | CCC1OC2(C)C(O)C(/C=C/C=C/C=C/c3oc(=O)cc(OC)c3C)OC1(C)C2OC(C)=O (configuration not stated) | active: 0.109 µM
37 | N#CC(=C(\N)Sc1ccccc1N)/C(C#N)=C(/N)Sc1ccccc1N | inconclusive: 43.2 µM [inhibitor, single point]

Rewritten with each value named: entries from further up.
CN1CCN(C2=Nc3cc(Cl)ccc3Nc3ccccc32)CC1
  Potency: inconclusive: 24.3 µM [inhibitor, single point]
O=C(CCCN1CCN(c2ccc(F)cc2)CC1)NC1c2ccccc2CSc2ccccc21 (configuration not stated)
  Potency: inconclusive: 0.0172 µM [inhibitor, full curve]
